PubChem BioAssay AID1259424 | University of Nebraska Medical Center – 2018

Screen: 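Find knockdowns that reproduce the expression shifts seen after KSR1 loss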 (primary screen)
System: human HCT116 colon cancer cells
Knock-down reagent: siRNA pool against human genes, 50 nM
Read-out: 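Six signature mRNAs by branched-DNA multiplex assay, scaled to two housekeeping genes and non-targeting median, log2; matched to mean KSR1 knockdown profile by Pearson correlation and euclidean distance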
Direction: mean correlation with KSR1 profile: higher = expression change more like KSR1 knockdown
The whole screen tested about 14,000 reagents; shown is a random part of them. 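Higher correlation or smaller distance means closer resemblance to KSR1 loss; control wells, including KSR1 knockdowns, recur on many plates.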 Not all columns of the deposit are shown. Reagent sequences are not shown. The record does not give: the time to read-out.

DOCK6 (GeneID 57572) — mean correlation with KSR1 profile: -0.74
FKBP15 (GeneID 23307) — mean correlation with KSR1 profile: -0.415
SERPINF2 (GeneID 5345) — mean correlation with KSR1 profile: 0.167
SLC1A6 (GeneID 6511) — mean correlation with KSR1 profile: -0.34
PLAAT1 (GeneID 57110) — mean correlation with KSR1 profile: 0.3
PCDHGB3 (GeneID 56102) — mean correlation with KSR1 profile: -0.844
HEBP2 (GeneID 23593) — mean correlation with KSR1 profile: -0.116
POLR3A (GeneID 11128) — mean correlation with KSR1 profile: -0.449
CCL17 (GeneID 6361) — mean correlation with KSR1 profile: 0.433
SOX6 (GeneID 55553) — mean correlation with KSR1 profile: 0.305
NUSAP1 (GeneID 51203) — mean correlation with KSR1 profile: -0.272
PCBD2 (GeneID 84105) — mean correlation with KSR1 profile: 0.7
IFITM3 (GeneID 10410) — mean correlation with KSR1 profile: 0.0194
ROPN1L (GeneID 83853) — mean correlation with KSR1 profile: -0.199
PHF6 (GeneID 84295) — mean correlation with KSR1 profile: 0.562
FOLR2 (GeneID 2350) — mean correlation with KSR1 profile: 0.283
GFRA3 (GeneID 2676) — mean correlation with KSR1 profile: 0.595
AKAP1 (GeneID 8165) — mean correlation with KSR1 profile: 0.727
WNT8B (GeneID 7479) — mean correlation with KSR1 profile: -0.124
CLDN7 (GeneID 1366) — mean correlation with KSR1 profile: -0.491
EP300 (GeneID 2033) — mean correlation with KSR1 profile: -0.539
OR2J2 (GeneID 26707) — mean correlation with KSR1 profile: 0.648
TBC1D22A (GeneID 25771) — mean correlation with KSR1 profile: -0.968
GRB2 (GeneID 2885) — mean correlation with KSR1 profile: 0.286
EEF2K (GeneID 29904) — mean correlation with KSR1 profile: 0.185
C5AR2 (GeneID 27202) — mean correlation with KSR1 profile: 0.248
ATP6V0A1 (GeneID 535) — mean correlation with KSR1 profile: -0.44
NIF3L1 (GeneID 60491) — mean correlation with KSR1 profile: -0.547

A stretch from the list above, as a working copy:
CCL17 (GeneID 6361) — mean correlation with KSR1 profile: 0.433
SOX6 (GeneID 55553) — mean correlation with KSR1 profile: 0.305
NUSAP1 (GeneID 51203) — mean correlation with KSR1 profile: -0.272
PCBD2 (GeneID 84105) — mean correlation with KSR1 profile: 0.7
IFITM3 (GeneID 10410) — mean correlation with KSR1 profile: 0.0194
